Experimental data as given in publication PMC7862700.
The other results are listed elsewhere or left out. The source does not settle which construct or isoform was used.

These sequences were tested against T1, ETS1 (UniProt P14921) (assay: DAPPL (digital affinity profiling via proximity ligation, sequencing)). Settings: 10 mM Tris-HCl pH 7.5, 50 mM NaCl, 1 mM DTT, 4% glycerol, room temperature, 30 min; GST-TFs on glutathione beads, 16-mer random dsDNA library, 0.1% …; high values mean tight binding; double strand, one strand shown; scale: fold enrichment (6-mer frequency, TF over GST control).
T1 sequence: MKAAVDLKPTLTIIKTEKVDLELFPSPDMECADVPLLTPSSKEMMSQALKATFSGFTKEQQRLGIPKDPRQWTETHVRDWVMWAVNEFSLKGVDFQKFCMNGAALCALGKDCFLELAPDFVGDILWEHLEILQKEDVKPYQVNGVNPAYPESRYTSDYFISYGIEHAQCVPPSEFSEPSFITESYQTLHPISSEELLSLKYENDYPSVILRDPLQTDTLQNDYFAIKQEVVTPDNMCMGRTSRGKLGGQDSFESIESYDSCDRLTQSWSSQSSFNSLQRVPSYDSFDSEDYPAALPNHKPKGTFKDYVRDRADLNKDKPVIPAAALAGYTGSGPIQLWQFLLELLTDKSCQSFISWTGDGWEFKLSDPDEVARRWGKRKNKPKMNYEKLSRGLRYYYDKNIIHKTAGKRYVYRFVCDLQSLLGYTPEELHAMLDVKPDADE
Work on TCTCAG yielded a binding signal of 1.36.
Sequence CCCGGC has a binding signal of 1.13.
With ACTTGT the binding signal was 1.34.
Sequence ATCACA has a binding signal of 1.14.
With ATTCAT the binding signal was 1.23.
CCGCTT was tested, and the binding signal was 1.75.
Sequence TAGTGG has a binding signal of 1.14.
With CTACAA the binding signal was 1.11.
ATAAAA gave a binding signal of 1.15.
TTTAAC gave a binding signal of 1.18.
CAATCT was tested, and the binding signal was 1.21.
Sequence AGTGTC has a binding signal of 0.973.
In the case of ACCTAT, the binding signal is reported as 1.26.
With TCTATC the binding signal was 1.22.
For CTCAGC, the binding signal was 1.26.
Work on TGACCA yielded a binding signal of 1.19.
In the case of GCAATA, the binding signal is reported as 1.04.
TTCTTA was tested, and the binding signal was 1.42.
With TTCCCA the binding signal was 1.21.
Sequence TGGCTC has a binding signal of 1.37.
With CAACAC the binding signal was 1.15.
For TCGTAT, the binding signal was 0.974.
Sequence ATACGA has a binding signal of 1.22.
In the case of CTTGCT, the binding signal is reported as 1.29.
AATGGT gave a binding signal of 1.49.
Sequence ACCCCA has a binding signal of 1.17.
TAGTGC showed a binding signal of 1.01.
CGTTCC gave a binding signal of 1.54.
Work on GTATAA yielded a binding signal of 1.05.
AAGGGC was tested, and the binding signal was 1.09.
With CCCTGT the binding signal was 1.22.
Sequence GTTAAT has a binding signal of 1.04.
AAGTGC showed a binding signal of 1.16.
ACACTA showed a binding signal of 1.14.
TCAACG was tested, and the binding signal was 1.08.
In the case of CCGAAT, the binding signal is reported as 1.16.
For TAAGTT, the binding signal was 1.3.
Sequence TATCTG has a binding signal of 1.22.
TGACCG gave a binding signal of 1.47.
In the case of GGACAT, the binding signal is reported as 1.14.
